This note sets out measurements from publication PMC4113265 (Journal of Natural Products, 2014).

The assay deals with MIA PaCa-2 cells. The experiment in a line: MTT antiproliferation/cytotoxicity assay. To be noted: MIA PaCa-2, MTT, concentration-response curves (Figure 2A). Type of assay: cell-based, human.

SMILES strings stand for the structures.

For `O=C(CCCCCCC(=O)Nc1ccccc1)NO` [SAHA, vorinostat], the “potency relative to 1 in MIA PaCa-2 cells” value was “significantly less active than 1”.
